System: Aedes aegypti
Assay: Repellency on treated membrane-covered blood-filled wells
Type: in vivo
Details: 7% in isopropanol, 20 min
Method: The invention is illustrated by, but not limited to, the following examples. • Five replicates of 250 adult female mosquitoes each were placed in clear plastic cages with access to five warmed, blood-filled, membrane-covered wells. The mosquitoes were Aedes aegypti unless otherwise noted. Membranes were treated with repellent. Five replicates were tested. Each replicate used a fresh batch of mosquitoes, blood and treated membranes. The number of mosquitoes probing each well was recorded at two minute intervals for 20 minutes. The total numbers of probes on each well were tallied at the end of the observation period and the average percentage repellency relative to the control was calculated for each formulation.

SMILES: CCCCCCCC1CCC(=O)O1 (centres unmarked) [gamma-undecalactone]
- Avg # Probes: 0
- Avg % Repellency (relative to control): 100%

Source: patent publication US9314029B2, “Control and repellency of mosquitoes” (BEDOUKIAN RESEARCH, INC., priority 2012, dated 2016)
